Experimental data as given in PubChem BioAssay AID2685 (National Center for Advancing Translational Sciences (NCATS), 2010).
About 2,100 (0.66%) of roughly 320,000 compounds were called active. Inconclusive results, whose numbers are uncertain, are shown with a selection of clear calls. Calls come from the whole dose curve; as a rule, active = well fitted inhibition curve with a large enough effect in the signal ratio, with a control signal flat (not every such curve was filed as active); inconclusive = small, poorly fitted or top-dose-only effect, or effect the other way, or a change in a side signal; inactive = flat fitted curve, though single readings scatter; the % refers to the signal ratio. A potency beside an inconclusive call is a rough fit, not a confirmed value.

Experiment: qHTS Assay for Lipid Storage Modulators in Drosophila S3 Cells
Conditions: BODIPY lipid droplet fluorescence, 18-24 h, cells fed with added oleic acid; lipid storage change, negative = inhibition: at 46.1 µM (top of the series) unless noted
In short: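 Drosophila S3 cells loaded with oleic acid (400 uM, as added) and compounds at several concentrations; lipid droplets imaged by 488-nm laser-scanning cytometry, 500–530 nm intensity and object ratio to cell channel. Percent activity normalized to 20 uM Triacsin C.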
% is set by controls: 0 for no effect and ±100 for the full control effect; potency is the fitted concentration of half-maximal effect.

Question: Which lipid storage change, negative = inhibition does the source give for COc1ccc(S(=O)(=O)N2CCN(C(=O)c3ccc(=O)[nH]n3)CC2)cc1OC here?
Answer: inconclusive

Question: With O=C1CC(N(O)c2ccccc2)C(=O)N1Cc1ccccc1 (centres undefined) as the compound, how does the lipid storage change, negative = inhibition read?
Answer: inconclusive: 19.1%

Question: With CCCN1C(=O)c2ccc(C(=O)NC3=NCCS3)cc2C1=O as the compound, how does the “outcome” value read?
Answer: inactive [at 46.1 µM]

Question: With CCN(CC)C(=O)CNC(=O)c1nn(-c2ccc(OC)c(Cl)c2)c(=O)c2ccccc12 as the compound, how does the lipid storage change, negative = inhibition read?
Answer: inconclusive: 36.8%

Question: For Cc1ccc(C(=O)OCC(=O)N(C)c2ccccc2)cc1C, which lipid storage change, negative = inhibition is on record?
Answer: inconclusive: 19.8%

Question: Which lipid storage change, negative = inhibition does the source give for COc1ccc(NC(=O)CNc2cccc(S(=O)(=O)N3CCCCCC3)c2)c([N+](=O)[O-])c1 here?
Answer: inconclusive: -16%

Question: Which Potency does the source give for CCOc1cc(CN2CCc3c([nH]c4ccccc34)C2)ccc1OC here?
Answer: inconclusive: 29.1 µM [activator, single point]

Question: For Cc1cccc(-c2ccc3ncnc(N(C)Cc4ccco4)c3c2)c1, which “lipid storage change, negative = inhibition” value is on record?
Answer: inactive: 17%

Question: Which lipid storage change, negative = inhibition does the source give for COc1ccc(Br)cc1CN1CCC(N2CCCC2)CC1 here?
Answer: inconclusive: 22.9%

Question: With COc1ccc(N2C(=O)CC(SCc3ccc(Cl)cc3)C2=O)cc1 (centres undefined) as the compound, how does the lipid storage change, negative = inhibition read?
Answer: inconclusive: 14.3%

Question: Which lipid storage change, negative = inhibition does the source give for O=c1c2ccccc2ncn1CCCCOc1ccc(Br)cc1 here?
Answer: inconclusive: -27.7%

Question: For COC(=O)c1ccccc1NC(=O)c1cc2sccc2n1C, which lipid storage change, negative = inhibition is on record?
Answer: inconclusive: 26.6%

Question: Which lipid storage change, negative = inhibition does the source give for CC(C)CN1CCC(=O)N(CCOc2ccccc2)CC1 here?
Answer: inconclusive: 15.7%

Question: Which Potency does the source give for Cc1ccc(SCC(=O)NC2CCS(=O)(=O)C2)cc1 (centres undefined) here?
Answer: inconclusive: 1.16 µM [falling, single point]

Question: With COc1ccccc1NC(=S)N1CCN(c2ncccn2)CC1 as the compound, how does the lipid storage change, negative = inhibition read?
Answer: inconclusive: -48.5% [cytotoxic] [at 0.00295 µM]

Question: For C=CCn1c(SCC(=O)NCCCC(=O)OCC)nc2scc(-c3ccco3)c2c1=O, which lipid storage change, negative = inhibition is on record?
Answer: inconclusive: 17.4%

Question: With CC(C)C[C@@H](C(=O)N[C@@H](C(=O)O)c1ccccc1)N1C(=O)N2CCc3c([nH]c4ccccc34)[C@@]2(C)C1=O as the compound, how does the lipid storage change, negative = inhibition read?
Answer: inconclusive: -26.9%

Question: Which lipid storage change, negative = inhibition does the source give for O=C(O)c1ccc(Nc2nc3c(s2)CCCC3)cc1 here?
Answer: inconclusive: 13.5%

Question: With C/C(N)=C(/C#N)C(=O)COC(=O)CCCNC(=O)c1ccc(Cl)cc1 as the compound, how does the lipid storage change, negative = inhibition read?
Answer: inconclusive: -8.04%

Question: Which Potency does the source give for CCCCN(C)C(=O)CS(=O)(=O)Cc1nc(-c2cccc(OC)c2)oc1C here?
Answer: inconclusive: 2.06 µM [activator, partial curve, poor fit]

Question: With CCOC(=O)/C=C1\SCC(=O)N1CC(=O)NCc1ccc(OC)c(OC)c1 as the compound, how does the lipid storage change, negative = inhibition read?
Answer: inconclusive: 8.05%

Question: For Oc1ccc(N2CCN(C(c3cccnc3)c3nnnn3Cc3ccccc3)CC2)cc1 (centres undefined), which Potency is on record?
Answer: inconclusive: 0.259 µM [rising, full curve]

Question: Which Potency does the source give for COc1ccc(N2CCN(S(=O)(=O)CCNS(=O)(=O)c3ccccc3)CC2)cc1 here?
Answer: inconclusive: 9.2 µM [activator, partial curve]

Question: Which Potency does the source give for Cc1ccc(NC(=O)NCCCN2CCCC2=O)cc1Cl here?
Answer: inconclusive: 3.16 µM [falling, single point]

Question: For C[C@H](CCC(=O)O)[C@H]1CC[C@H]2[C@@H]3CC[C@@H]4C[C@H](O)CC[C@]4(C)[C@H]3CC[C@]12C, which lipid storage change, negative = inhibition is on record?
Answer: inconclusive: 15.5%

Question: With O=C1OC(NC(=O)c2ccccc2)C(n2cc(CO)nn2)=C1Cl (centres undefined) as the compound, how does the lipid storage change, negative = inhibition read?
Answer: inconclusive: -23.5%

Question: Which lipid storage change, negative = inhibition does the source give for Cc1cc(C)c(NC(=O)COC(=O)c2c(C)noc2C)c(Cl)c1 here?
Answer: inconclusive: -10.9%

Question: With O=C(CN1CCN(c2ccccc2O)CC1)Nc1ccc2c(c1)OCCCO2 as the compound, how does the Potency read?
Answer: inconclusive: 29.1 µM [falling, single point]

Question: Which lipid storage change, negative = inhibition does the source give for Cc1ccc(/C=N/Nc2cccc(C(=O)O)c2)s1 here?
Answer: inconclusive: -4.43%

Question: With NCc1ccccc1COc1ccccc1 as the compound, how does the lipid storage change, negative = inhibition read?
Answer: inconclusive: 7.17%

Question: With COc1cc(OC)cc(C(=O)NCC(=O)Nc2ccc(OC)c(Cl)c2)c1 as the compound, how does the lipid storage change, negative = inhibition read?
Answer: inconclusive: 270%

Question: With COc1ccc(NC(=O)c2ccc3c(c2)OCO3)cc1Cl as the compound, how does the lipid storage change, negative = inhibition read?
Answer: inconclusive: -22.4%

Question: Which lipid storage change, negative = inhibition does the source give for O=C(C1Cc2ccccc2O1)N1CCCCC1 (centres undefined) here?
Answer: inconclusive: 0.0214%

Question: For COc1ccc(N(C(=O)c2ccco2)C(C(=O)NC2CCCC2)c2cccs2)cc1 (centres undefined), which Potency is on record?
Answer: inconclusive: 0.116 µM [falling, single point]

Question: Which Potency does the source give for CCOC(=O)CSCC(=O)N1CCC(Cc2ccccc2)CC1 here?
Answer: inconclusive: 6.51 µM [activator, single point]

Question: For COCCCNC(=O)c1cc(C(=O)c2c(-c3c(Cl)cccc3Cl)noc2C)c[nH]1, which lipid storage change, negative = inhibition is on record?
Answer: inconclusive: -35.6% [at 0.0737 µM]

Question: For O=C(CC(Nc1ccc(Cl)cc1)C(=O)O)c1ccccc1 (centres undefined), which Potency is on record?
Answer: inconclusive: 29.1 µM [falling, single point]

Question: For Cc1cc(C(=O)NNS(=O)(=O)c2ccccc2C(F)(F)F)nn1C(C)(C)C, which lipid storage change, negative = inhibition is on record?
Answer: inconclusive: 6.58%

Question: For COc1cccc(-n2c(COc3ccccc3C)nnc2SCC(=O)O)c1, which Potency is on record?
Answer: inconclusive: 2.59 µM [falling, full curve]

Question: For CC(C)N1C(=O)c2ccccc2C1C(=O)NC1CCCCCC1 (centres undefined), which Potency is on record?
Answer: inconclusive: 23.1 µM [falling, single point]

Question: With CCCCNC(=O)c1ccc(CS(=O)(=O)c2ccc(OC)cc2)o1 as the compound, how does the Potency read?
Answer: inconclusive: 29.1 µM [activator, single point]

Question: Which lipid storage change, negative = inhibition does the source give for CN=C1SC(C(=O)Nc2ccccc2Cl)CC(=O)N1c1ccc(OC(F)(F)Cl)cc1 (centres undefined) here?
Answer: inconclusive: 13.3%

Question: Which Potency does the source give for COc1ccccc1C(=O)NNC(=O)c1ccccc1[N+](=O)[O-] here?
Answer: inconclusive: 9.2 µM [activator, partial curve]

Question: With CCC1(C)OCC(Cn2c3ccccc3c3ccccc32)O1 (centres undefined) as the compound, how does the lipid storage change, negative = inhibition read?
Answer: inconclusive: -15.8%

Question: For Cc1ncoc1C(=O)N1CCCC(C(=O)c2cccc(C(F)(F)F)c2)C1 (centres undefined), which lipid storage change, negative = inhibition is on record?
Answer: inconclusive: -23%

Question: For COc1ccc(-c2csc(N)n2)cc1, which lipid storage change, negative = inhibition is on record?
Answer: inconclusive: 14.6%

Question: Which Potency does the source give for Cc1[nH]c(=O)[nH]c(=O)c1/C=N/NC(=O)[C@@H](NC(=O)OC(C)(C)C)C(C)C here?
Answer: inconclusive: 7.31 µM [activator, partial curve]

Question: Which lipid storage change, negative = inhibition does the source give for COc1cc2c(cc1OC)C1O[C@](c3ccsc3)(C2)Oc2c1c(=O)oc1ccc(F)cc21 here?
Answer: inconclusive: -45.7% [at 9.22 µM]

Question: For CC(=O)c1c(C)[nH]c(C(=O)NCCN2CCC(C)CC2)c1C, which Potency is on record?
Answer: inconclusive: 32.6 µM [activator, single point]
